Experimental data taken from the supplement of paper PMC10849652.
The other results are listed elsewhere or left out. Residues, ends and D or L forms follow the SMILES beside them. *: point of attachment. Cbz = O=C(OCc1ccccc1)*

Sequences of proteins named here, by UniProt entry; tags and fusion partners are left off. A change or cut given only in a name is not applied to a line headed by its entry.
UniProt Q9Y217: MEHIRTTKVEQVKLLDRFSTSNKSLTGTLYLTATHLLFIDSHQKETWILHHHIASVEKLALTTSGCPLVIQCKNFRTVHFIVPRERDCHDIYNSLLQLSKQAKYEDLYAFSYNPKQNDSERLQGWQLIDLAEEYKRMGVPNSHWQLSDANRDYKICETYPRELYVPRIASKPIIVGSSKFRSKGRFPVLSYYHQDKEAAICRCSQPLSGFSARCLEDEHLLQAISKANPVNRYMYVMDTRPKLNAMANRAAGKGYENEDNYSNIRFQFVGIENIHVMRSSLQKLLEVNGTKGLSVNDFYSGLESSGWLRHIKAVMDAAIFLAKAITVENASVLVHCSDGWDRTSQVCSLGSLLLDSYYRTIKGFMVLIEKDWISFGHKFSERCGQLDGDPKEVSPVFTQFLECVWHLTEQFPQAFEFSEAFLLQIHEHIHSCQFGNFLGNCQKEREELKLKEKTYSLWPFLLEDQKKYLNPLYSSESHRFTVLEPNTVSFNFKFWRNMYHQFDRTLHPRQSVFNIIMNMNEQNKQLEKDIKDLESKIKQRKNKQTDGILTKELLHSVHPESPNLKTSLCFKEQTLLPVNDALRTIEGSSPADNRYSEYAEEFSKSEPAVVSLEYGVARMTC
UniProt Q9C0I1: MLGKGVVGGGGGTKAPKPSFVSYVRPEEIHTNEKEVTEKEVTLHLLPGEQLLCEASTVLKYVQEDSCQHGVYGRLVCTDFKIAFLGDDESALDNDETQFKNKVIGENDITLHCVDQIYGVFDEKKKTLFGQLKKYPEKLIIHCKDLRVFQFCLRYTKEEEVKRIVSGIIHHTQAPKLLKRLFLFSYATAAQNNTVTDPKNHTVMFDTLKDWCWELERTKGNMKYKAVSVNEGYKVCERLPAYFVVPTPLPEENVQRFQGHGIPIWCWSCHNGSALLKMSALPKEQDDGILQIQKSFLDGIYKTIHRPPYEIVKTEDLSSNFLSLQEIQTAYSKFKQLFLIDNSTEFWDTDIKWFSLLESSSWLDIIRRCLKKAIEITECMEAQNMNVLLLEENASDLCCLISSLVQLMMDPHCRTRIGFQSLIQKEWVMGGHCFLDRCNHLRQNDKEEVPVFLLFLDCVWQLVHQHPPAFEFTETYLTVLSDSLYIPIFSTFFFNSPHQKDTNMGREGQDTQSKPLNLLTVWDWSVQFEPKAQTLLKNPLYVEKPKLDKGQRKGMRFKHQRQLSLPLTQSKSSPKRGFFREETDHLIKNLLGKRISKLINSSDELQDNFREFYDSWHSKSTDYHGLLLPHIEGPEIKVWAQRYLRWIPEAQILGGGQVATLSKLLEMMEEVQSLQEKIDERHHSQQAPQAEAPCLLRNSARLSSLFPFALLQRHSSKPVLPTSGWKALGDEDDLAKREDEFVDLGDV
UniProt P00156: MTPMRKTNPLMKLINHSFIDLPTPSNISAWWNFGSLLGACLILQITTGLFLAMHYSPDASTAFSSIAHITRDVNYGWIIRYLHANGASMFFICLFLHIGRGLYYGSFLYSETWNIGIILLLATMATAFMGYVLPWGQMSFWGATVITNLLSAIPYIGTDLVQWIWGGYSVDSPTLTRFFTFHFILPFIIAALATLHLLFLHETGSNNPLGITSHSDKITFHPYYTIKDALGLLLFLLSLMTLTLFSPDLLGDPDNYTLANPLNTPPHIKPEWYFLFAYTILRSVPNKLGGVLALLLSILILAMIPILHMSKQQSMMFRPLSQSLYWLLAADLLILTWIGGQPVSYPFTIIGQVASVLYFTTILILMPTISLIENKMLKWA
UniProt Q86UE4: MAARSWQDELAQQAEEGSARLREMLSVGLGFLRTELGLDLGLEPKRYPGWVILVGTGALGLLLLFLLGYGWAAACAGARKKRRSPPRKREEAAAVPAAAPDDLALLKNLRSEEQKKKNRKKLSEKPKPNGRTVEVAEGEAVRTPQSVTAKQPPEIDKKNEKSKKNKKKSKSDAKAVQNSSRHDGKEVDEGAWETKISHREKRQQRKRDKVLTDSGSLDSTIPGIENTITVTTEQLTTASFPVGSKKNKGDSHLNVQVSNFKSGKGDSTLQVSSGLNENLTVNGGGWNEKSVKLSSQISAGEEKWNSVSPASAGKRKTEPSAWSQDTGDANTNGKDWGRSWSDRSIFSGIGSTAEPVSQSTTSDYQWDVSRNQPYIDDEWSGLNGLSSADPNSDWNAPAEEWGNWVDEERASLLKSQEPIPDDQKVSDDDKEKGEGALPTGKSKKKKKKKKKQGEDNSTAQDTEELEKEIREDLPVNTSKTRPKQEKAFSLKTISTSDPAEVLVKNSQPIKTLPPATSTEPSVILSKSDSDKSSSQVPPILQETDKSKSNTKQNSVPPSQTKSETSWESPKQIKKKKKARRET
UniProt Q03426, whole entry, looked up: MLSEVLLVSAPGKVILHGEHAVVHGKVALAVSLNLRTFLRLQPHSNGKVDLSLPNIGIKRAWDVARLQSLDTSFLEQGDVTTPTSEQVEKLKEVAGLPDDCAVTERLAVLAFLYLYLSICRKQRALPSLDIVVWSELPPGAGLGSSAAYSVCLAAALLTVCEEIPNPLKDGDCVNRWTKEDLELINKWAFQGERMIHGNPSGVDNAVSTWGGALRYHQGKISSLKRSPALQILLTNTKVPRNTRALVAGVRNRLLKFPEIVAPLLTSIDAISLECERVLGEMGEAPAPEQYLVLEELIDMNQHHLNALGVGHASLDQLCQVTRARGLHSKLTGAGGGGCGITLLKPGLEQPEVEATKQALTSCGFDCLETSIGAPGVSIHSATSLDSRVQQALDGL
UniProt Q15390: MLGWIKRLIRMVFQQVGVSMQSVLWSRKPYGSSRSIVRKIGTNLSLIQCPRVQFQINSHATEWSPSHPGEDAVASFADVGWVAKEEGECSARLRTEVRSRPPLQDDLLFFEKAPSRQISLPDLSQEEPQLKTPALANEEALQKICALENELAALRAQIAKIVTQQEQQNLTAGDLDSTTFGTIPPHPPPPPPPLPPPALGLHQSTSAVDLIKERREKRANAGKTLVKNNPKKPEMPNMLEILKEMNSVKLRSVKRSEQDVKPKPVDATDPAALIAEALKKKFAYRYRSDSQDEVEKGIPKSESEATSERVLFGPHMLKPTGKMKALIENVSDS
UniProt Q15800: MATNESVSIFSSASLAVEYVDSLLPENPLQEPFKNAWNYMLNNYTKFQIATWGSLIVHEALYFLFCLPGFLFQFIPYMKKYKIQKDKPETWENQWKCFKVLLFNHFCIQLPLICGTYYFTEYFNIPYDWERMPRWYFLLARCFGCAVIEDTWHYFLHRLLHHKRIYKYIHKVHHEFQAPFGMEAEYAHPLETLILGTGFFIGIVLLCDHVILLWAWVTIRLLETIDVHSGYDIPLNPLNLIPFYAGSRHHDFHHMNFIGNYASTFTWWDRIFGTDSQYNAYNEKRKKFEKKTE
UniProt Q9NZJ7, whole entry, looked up: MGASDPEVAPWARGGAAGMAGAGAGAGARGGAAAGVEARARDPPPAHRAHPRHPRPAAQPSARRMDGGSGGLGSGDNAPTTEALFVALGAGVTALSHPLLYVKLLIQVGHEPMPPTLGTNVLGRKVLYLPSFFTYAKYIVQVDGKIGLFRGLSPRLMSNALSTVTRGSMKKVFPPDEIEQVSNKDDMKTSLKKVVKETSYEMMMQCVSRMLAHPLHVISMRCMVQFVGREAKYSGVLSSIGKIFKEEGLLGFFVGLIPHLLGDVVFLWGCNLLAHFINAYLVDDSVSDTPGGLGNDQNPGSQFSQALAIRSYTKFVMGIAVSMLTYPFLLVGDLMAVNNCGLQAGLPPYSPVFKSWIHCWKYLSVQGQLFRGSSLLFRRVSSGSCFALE
UniProt Q7Z406, whole entry, looked up: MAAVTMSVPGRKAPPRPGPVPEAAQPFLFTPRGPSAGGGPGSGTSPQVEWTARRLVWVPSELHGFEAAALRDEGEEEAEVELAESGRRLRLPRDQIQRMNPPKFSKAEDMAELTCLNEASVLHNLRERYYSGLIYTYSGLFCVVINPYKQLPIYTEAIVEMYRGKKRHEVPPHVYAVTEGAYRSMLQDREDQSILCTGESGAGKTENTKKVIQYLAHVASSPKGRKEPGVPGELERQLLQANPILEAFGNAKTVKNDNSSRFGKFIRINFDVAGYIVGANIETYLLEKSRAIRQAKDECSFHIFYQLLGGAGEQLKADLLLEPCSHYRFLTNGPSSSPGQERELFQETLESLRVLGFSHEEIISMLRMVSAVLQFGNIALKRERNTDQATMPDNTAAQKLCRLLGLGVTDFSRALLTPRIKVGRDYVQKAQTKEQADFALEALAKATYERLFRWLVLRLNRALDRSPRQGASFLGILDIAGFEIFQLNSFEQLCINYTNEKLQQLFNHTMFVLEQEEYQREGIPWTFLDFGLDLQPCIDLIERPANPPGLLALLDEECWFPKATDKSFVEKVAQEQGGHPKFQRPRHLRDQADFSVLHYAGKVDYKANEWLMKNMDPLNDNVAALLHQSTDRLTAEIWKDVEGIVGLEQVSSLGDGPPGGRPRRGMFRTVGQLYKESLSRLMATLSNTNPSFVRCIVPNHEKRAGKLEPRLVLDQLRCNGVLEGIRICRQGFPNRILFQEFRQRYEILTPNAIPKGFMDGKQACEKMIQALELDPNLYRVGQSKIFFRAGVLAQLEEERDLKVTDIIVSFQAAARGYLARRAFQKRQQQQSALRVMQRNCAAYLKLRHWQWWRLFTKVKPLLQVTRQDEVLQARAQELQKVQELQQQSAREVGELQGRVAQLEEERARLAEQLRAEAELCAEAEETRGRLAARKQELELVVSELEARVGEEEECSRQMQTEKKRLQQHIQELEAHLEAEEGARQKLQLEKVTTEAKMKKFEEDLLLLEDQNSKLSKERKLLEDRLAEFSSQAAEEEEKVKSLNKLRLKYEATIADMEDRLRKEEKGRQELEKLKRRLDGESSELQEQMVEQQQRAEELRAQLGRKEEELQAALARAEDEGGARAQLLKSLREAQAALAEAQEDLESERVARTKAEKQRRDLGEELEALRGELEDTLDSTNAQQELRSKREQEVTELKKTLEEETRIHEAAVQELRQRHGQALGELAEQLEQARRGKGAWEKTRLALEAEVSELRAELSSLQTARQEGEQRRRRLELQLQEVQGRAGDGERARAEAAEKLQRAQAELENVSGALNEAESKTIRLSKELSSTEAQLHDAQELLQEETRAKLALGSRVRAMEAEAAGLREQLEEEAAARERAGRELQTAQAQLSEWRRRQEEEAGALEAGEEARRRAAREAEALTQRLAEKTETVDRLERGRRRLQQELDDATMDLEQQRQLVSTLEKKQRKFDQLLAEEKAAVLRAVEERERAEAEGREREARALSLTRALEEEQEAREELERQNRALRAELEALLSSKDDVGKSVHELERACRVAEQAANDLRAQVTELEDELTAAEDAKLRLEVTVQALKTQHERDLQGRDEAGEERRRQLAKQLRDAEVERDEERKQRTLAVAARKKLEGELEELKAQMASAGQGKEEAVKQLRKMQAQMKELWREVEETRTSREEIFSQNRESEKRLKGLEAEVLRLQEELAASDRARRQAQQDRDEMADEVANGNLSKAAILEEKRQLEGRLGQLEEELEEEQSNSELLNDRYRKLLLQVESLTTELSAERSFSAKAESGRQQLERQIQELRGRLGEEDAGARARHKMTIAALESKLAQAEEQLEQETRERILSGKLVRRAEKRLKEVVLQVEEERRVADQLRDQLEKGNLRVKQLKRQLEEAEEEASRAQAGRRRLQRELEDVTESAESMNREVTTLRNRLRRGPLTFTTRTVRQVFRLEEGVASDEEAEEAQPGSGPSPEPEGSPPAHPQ
UniProt Q9UBK8: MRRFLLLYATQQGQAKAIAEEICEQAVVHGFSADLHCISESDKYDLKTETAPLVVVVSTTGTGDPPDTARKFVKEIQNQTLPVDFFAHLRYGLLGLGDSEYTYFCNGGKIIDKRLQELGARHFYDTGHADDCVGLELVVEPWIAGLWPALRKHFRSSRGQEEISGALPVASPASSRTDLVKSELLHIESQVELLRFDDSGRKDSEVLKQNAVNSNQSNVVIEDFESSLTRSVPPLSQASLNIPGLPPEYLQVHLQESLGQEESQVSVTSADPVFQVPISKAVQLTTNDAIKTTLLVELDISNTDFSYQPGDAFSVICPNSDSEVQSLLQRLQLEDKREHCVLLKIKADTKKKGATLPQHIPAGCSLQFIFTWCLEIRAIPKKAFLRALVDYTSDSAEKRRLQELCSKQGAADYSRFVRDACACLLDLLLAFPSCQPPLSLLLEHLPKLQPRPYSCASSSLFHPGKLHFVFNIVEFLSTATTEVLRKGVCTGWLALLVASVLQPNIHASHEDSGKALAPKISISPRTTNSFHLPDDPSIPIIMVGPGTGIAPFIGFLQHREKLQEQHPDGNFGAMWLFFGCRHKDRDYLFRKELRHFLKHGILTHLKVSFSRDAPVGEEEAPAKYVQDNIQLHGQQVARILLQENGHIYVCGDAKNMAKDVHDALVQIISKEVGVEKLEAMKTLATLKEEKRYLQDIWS

Key:
Experiment in all cases: log2 fold change, soluble protein after heating vs DMSO (PISA); higher = thermal stabilisation; K562 cells, 10 uM, 30 min; active = over 0.2 and 3.5 SD of the protein, either way, in both replicates (recomputed)
erlotinib = compound: C#Cc1cccc(Nc2ncnc3cc(OCCOC)c(OCCOC)cc23)c1 [erlotinib]
How it was run: (§1)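 Soluble protein was quantified by TMTpro 16plex LC-MS/MS after channel sums were equalised. It was obtained as the supernatant after 21,000xg for 90 min from pooled aliquots of K562 cells (2×10^6 cells/mL, 10 μM compound, 30 min) heated for 3 min across 48°C-58°C and extracted in PBS with 0.5% NP-40 at 4°C. Thermal stability values are relative to control samples and come from duplicates. They are given as log2 fold changes.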

[1] = compound: C/C(=N\NC(=O)C1=CC(=CC=C1)S(=O)(=O)N2CCOCC2)/C3=C(C=CC(=C3)Cl)O
How it was run: as §1

[2] = compound: C1=CC(=C(C=C1Cl)C2=NC3=NC=CN=C3C(=N2)NC4=CC=NC=C4)F
How it was run: as §1

[3] = compound: C1=CC(=CC=C1C2=NC3=C(N2)C=C(C=C3)C(=O)N)OC4=CC=C(C=C4)Cl
How it was run: as §1

[4] = compound: C1=CC2=C(C=CC(=C2)/C=C\3/C(=O)NC(=NCC4=CC=CS4)S3)N=C1
How it was run: as §1

[5] = compound: C1=CC2=NC=CN=C2C=C1/C=C/3\C(=O)NC(=O)S3
How it was run: as §1

[6] = compound: C1=CC=C(C=C1)C2=NC(=C(N2)C3=CC=NC=C3)C4=CC(=C(C=C4)Cl)O
How it was run: as §1

[7] = compound: C1=CC=C2C(=C1)C3=NNC4=CC=CC(=C43)C2=O
How it was run: as §1

[8] = compound: C1CCN(C1)C(=O)NC2=CC=CC(=C2)NC3=NC=C(C(=N3)NCCC4=CN=CN4)Br
How it was run: as §1

[9] = compound: C1CN(CCC1(CC2=CC=C(C=C2)Cl)N)C3=NC=NC4=C3C=CN4
How it was run: as §1

IRAK-1-4 Inhibitor I = compound: C1COCCN1CCN2C3=CC=CC=C3N=C2NC(=O)C4=CC(=CC=C4)[N+](=O)[O-] [IRAK-1-4 Inhibitor I]
How it was run: as §1

ibrutinib = compound: C=CC(=O)N1CCC[C@@H](n2nc(-c3ccc(Oc4ccccc4)cc3)c3c(N)ncnc32)C1 [ibrutinib]
How it was run: as §1

[10] = compound: CC(=O)c1cnc2ccc(-c3cc(Cl)c(O)c(Cl)c3)nc2c1N[C@H]1CC[C@H](CN(C)C)CC1
How it was run: as §1

ralimetinib = compound: CC(C)(C)Cn1c(N)nc2ccc(-c3[nH]c(C(C)(C)C)nc3-c3ccc(F)cc3)nc21 [ralimetinib]
How it was run: as §1

[11] = compound: CC(C)(O)CC(=O)NCCn1ccc2ncnc(Nc3ccc(Oc4cccc(C(F)(F)F)c4)c(Cl)c3)c21
How it was run: as §1

[12] = compound: CC(C)C1=C2N=C(C=C(N2N=C1)NCC3=CC=CC=C3)NCCCCCCN
How it was run: as §1

[13] = compound: CC(C)C[C@@H](C=O)NC(=O)[C@H](CC(C)C)NC(=O)[C@H](CC(C)C)NC(=O)OCc1ccccc1
How it was run: as §1

pinometostat = compound: CC(C)N(C[C@H]1O[C@@H](n2cnc3c(N)ncnc32)[C@H](O)[C@@H]1O)[C@H]1C[C@@H](CCc2nc3cc(C(C)(C)C)ccc3[nH]2)C1 [pinometostat]
How it was run: as §1

[14] = compound: CC1=C(C(CC(=O)N1)C2=CC=C(C=C2)C(F)(F)F)C(=O)NC3=C(C=C4C(=C3)C=NN4)F
How it was run: as §1

[15] = compound: CC1=C(C2=C(C=C1)C(=O)C3=CC=CC=C3N2CCCN)C
How it was run: as §1

Measured: log2 fold change

MRTO4 (UniProt Q9UKD2)
inactive: erlotinib -0.006 | [1] 0.04 | [2] -0.343 | [3] 0.189 | [4] -0.26 | [5] 0.007 | [6] -0.09 | [7] 0.059 | [8] 0.001 | [9] 0.024 | IRAK-1-4 Inhibitor I -0.282 | ibrutinib -0.041 | [10] 0.036 | ralimetinib 0.142 | [11] 0 | [12] -0.208 | [13] 0.116 | pinometostat 0.314 | [14] 0.014 | [15] 0.052

MTMR6 (UniProt Q9Y217)
inactive: erlotinib 0.033 | [1] 0.157 | [2] 0.056 | [3] -0.055 | [4] -0.003 | [5] -0.049 | [6] -0.021 | [7] -0.039 | [8] 0.011 | [9] -0.012 | IRAK-1-4 Inhibitor I -0.056 | ibrutinib 0.046 | [10] -0.062 | ralimetinib -0.04 | [11] -0.05 | [12] -0.069 | [13] 0.08 | pinometostat -0.017 | [14] 0.047 | [15] -0.072

MTMR12 (UniProt Q9C0I1)
inactive: erlotinib 0.008 | [1] -0.031 | [2] 0.017 | [3] 0.013 | [4] 0.036 | [5] 0.034 | [6] -0.035 | [7] -0.077 | [8] -0.001 | [9] 0.021 | IRAK-1-4 Inhibitor I 0.01 | ibrutinib -0.018 | [10] -0.012 | ralimetinib -0.041 | [11] -0.006 | [12] 0.078 | [13] -0.007 | pinometostat -0.033 | [14] 0.029 | [15] 0.031

MRPS7 (UniProt Q9Y2R9)
inactive: erlotinib -0.055 | [1] 0.053 | [2] -0.076 | [3] 0.129 | [4] -0.037 | [5] 0.011 | [6] -0.004 | [7] 0.036 | [8] -0.036 | [9] -0.045 | IRAK-1-4 Inhibitor I -0.083 | ibrutinib 0.043 | [10] -0.004 | ralimetinib -0.019 | [11] -0.024 | [12] -0.021 | [13] 0.078 | pinometostat 0.025 | [14] -0.05 | [15] -0.107

Reprinted from the entries so far (three entries):
MTMR6 (UniProt Q9Y217)
inactive: erlotinib 0.033 | [1] 0.157 | [2] 0.056 | [3] -0.055 | [4] -0.003 | [5] -0.049 | [6] -0.021 | [7] -0.039 | [8] 0.011 | [9] -0.012 | IRAK-1-4 Inhibitor I -0.056 | ibrutinib 0.046 | [10] -0.062 | ralimetinib -0.04 | [11] -0.05 | [12] -0.069 | [13] 0.08 | pinometostat -0.017 | [14] 0.047 | [15] -0.072

MTMR12 (UniProt Q9C0I1)
inactive: erlotinib 0.008 | [1] -0.031 | [2] 0.017 | [3] 0.013 | [4] 0.036 | [5] 0.034 | [6] -0.035 | [7] -0.077 | [8] -0.001 | [9] 0.021 | IRAK-1-4 Inhibitor I 0.01 | ibrutinib -0.018 | [10] -0.012 | ralimetinib -0.041 | [11] -0.006 | [12] 0.078 | [13] -0.007 | pinometostat -0.033 | [14] 0.029 | [15] 0.031

MRPS7 (UniProt Q9Y2R9)
inactive: erlotinib -0.055 | [1] 0.053 | [2] -0.076 | [3] 0.129 | [4] -0.037 | [5] 0.011 | [6] -0.004 | [7] 0.036 | [8] -0.036 | [9] -0.045 | IRAK-1-4 Inhibitor I -0.083 | ibrutinib 0.043 | [10] -0.004 | ralimetinib -0.019 | [11] -0.024 | [12] -0.021 | [13] 0.078 | pinometostat 0.025 | [14] -0.05 | [15] -0.107

The list goes on.

MTR (UniProt Q99707)
inactive: erlotinib 0.063 | [1] 0.024 | [2] -0.109 | [3] -0.049 | [4] 0.005 | [5] 0.018 | [6] -0.03 | [7] 0.002 | [8] 0.005 | [9] -0.016 | IRAK-1-4 Inhibitor I -0.065 | ibrutinib -0.022 | [10] 0.003 | ralimetinib 0.115 | [11] -0.014 | [12] -0.233 | [13] 0.131 | pinometostat 0.185 | [14] -0.083 | [15] -0.014

MT-CYB (UniProt P00156)
inactive: erlotinib -0.102 | [1] 0.013 | [2] -0.271 | [3] 0.116 | [4] -0.016 | [5] 0.08 | [6] -0.04 | [7] 0.038 | [8] -0.117 | [9] 0.094 | IRAK-1-4 Inhibitor I -0.011 | ibrutinib -0.013 | [10] -0.16 | ralimetinib -0.143 | [11] -0.026 | [12] 0.038 | [13] 0.009 | pinometostat -0.077 | [14] -0.131 | [15] 0.091

MTDH (UniProt Q86UE4)
inactive: erlotinib -0.128 | [1] -0.164 | [2] -0.487 | [3] -0.015 | [4] -0.103 | [5] -0.005 | [6] -0.145 | [7] -0.058 | [8] 0.05 | [9] -0.118 | IRAK-1-4 Inhibitor I -0.132 | ibrutinib 0.023 | [10] 0.12 | ralimetinib 0.108 | [11] 0.084 | [12] 0.038 | [13] 0.073 | pinometostat 0.309 | [14] 0.02 | [15] -0.111

MVK (UniProt Q03426)
inactive: erlotinib 0.027 | [1] 0.088 | [2] 0.024 | [3] -0.014 | [4] 0 | [5] 0.021 | [6] 0.01 | [7] -0.005 | [8] 0.031 | [9] 0.011 | IRAK-1-4 Inhibitor I -0.016 | ibrutinib -0.02 | [10] -0.002 | ralimetinib -0.023 | [11] -0.038 | [12] 0.047 | [13] -0.019 | pinometostat -0.003 | [14] 0.027 | [15] -0.003

MT-CO2 (UniProt P00403)
inactive: erlotinib -0.07 | [1] 0.043 | [2] -0.01 | [3] 0.031 | [4] -0.062 | [5] 0.099 | [6] -0.009 | [7] 0.099 | [8] 0.01 | [9] -0.042 | IRAK-1-4 Inhibitor I 0.053 | ibrutinib -0.075 | [10] -0.059 | ralimetinib -0.188 | [11] -0.028 | [12] -0.073 | [13] -0.071 | pinometostat 0.009 | [14] -0.026 | [15] -0.022

MTFR1 (UniProt Q15390)
inactive: erlotinib 0.034 | [1] -0.004 | [2] 0.029 | [3] 0.049 | [4] 0.008 | [5] 0.002 | [6] 0.024 | [7] 0.028 | [8] 0.069 | [9] 0.074 | IRAK-1-4 Inhibitor I 0.027 | ibrutinib -0.053 | [10] -0.03 | ralimetinib -0.015 | [11] -0.049 | [12] -0.156 | [13] -0.028 | pinometostat -0.006 | [14] 0.087 | [15] 0.111

MRPS23 (UniProt Q9Y3D9)
inactive: erlotinib -0.038 | [1] 0.052 | [2] -0.067 | [3] 0.16 | [4] 0.003 | [5] 0.043 | [6] 0.075 | [7] 0.118 | [8] 0.001 | [9] -0.099 | IRAK-1-4 Inhibitor I -0.043 | ibrutinib 0.068 | [10] -0.007 | ralimetinib -0.005 | [11] -0.029 | [12] -0.12 | [13] 0.03 | pinometostat 0.032 | [14] -0.041 | [15] -0.115

MSMO1 (UniProt Q15800)
inactive: erlotinib 0.028 | [1] 0.063 | [2] 0.087 | [3] 0 | [4] 0.033 | [5] 0.044 | [6] 0.082 | [7] -0.085 | [8] 0.035 | [9] 0.132 | IRAK-1-4 Inhibitor I 0.066 | ibrutinib 0.036 | [10] 0.004 | ralimetinib 0.031 | [11] -0.053 | [12] 0.014 | [13] -0.009 | pinometostat 0.038 | [14] 0.055 | [15] -0.04

MTCH1 (UniProt Q9NZJ7)
inactive: erlotinib -0.011 | [1] 0.031 | [2] 0.016 | [3] 0.017 | [4] 0.041 | [5] -0.014 | [6] 0.056 | [7] 0.004 | [8] -0.022 | [9] 0.072 | IRAK-1-4 Inhibitor I -0.003 | ibrutinib -0.016 | [10] -0.014 | ralimetinib -0.036 | [11] 0.168 | [12] -0.004 | [13] 0.019 | pinometostat -0.018 | [14] -0.044 | [15] 0.026

MYH14 isoform 2 (UniProt Q7Z406)
inactive: erlotinib 0.008 | [1] -0.008 | [2] 0.137 | [3] -0.005 | [4] -0.043 | [5] 0.015 | [6] 0.046 | [7] -0.025 | [8] -0.01 | [9] 0.022 | IRAK-1-4 Inhibitor I 0.049 | ibrutinib -0.007 | [10] 0.063 | ralimetinib 0 | [11] -0.009 | [12] 0.008 | [13] -0.022 | pinometostat -0.011 | [14] 0.144 | [15] -0.033

MTRR isoform 1 (UniProt Q9UBK8)
inactive: erlotinib 0.046 | [1] 0.11 | [2] -0.15 | [3] -0.001 | [4] 0.129 | [5] 0.003 | [6] 0.002 | [7] 0.032 | [8] 0.083 | [9] 0.014 | IRAK-1-4 Inhibitor I -0.023 | ibrutinib 0.021 | [10] -0.044 | ralimetinib 0.074 | [11] -0.077 | [12] 0.075 | [13] 0.046 | pinometostat -0.026 | [14] 0.009 | [15] 0.131

MRTFB isoform 5 (UniProt Q9ULH7)
inactive: erlotinib -0.004 | [1] 0 | [2] 0.055 | [3] 0.013 | [4] 0.062 | [5] 0.021 | [6] -0.044 | [7] -0.01 | [8] -0.036 | [9] -0.017 | IRAK-1-4 Inhibitor I -0.034 | ibrutinib 0.003 | [10] 0 | ralimetinib -0.047 | [11] -0.023 | [12] 0.015 | [13] 0.052 | pinometostat -0.035 | [14] 0.003 | [15] 0.027
